Earlier results as cited in patent EP1490333B1, “NEW ATORVASTATIN SALTS AND PHARMACEUTICAL COMPOSITIONS CONTAINING THEM” (Richter Gedeon Nyrt., priority 2002, dated 2003).
Counter-ions that a name gives are not always drawn.

Settings: in human; crystalline form compared with amorphous form; hemi-calcium salt; cited from earlier work

**Q.** For `CC(C)c1c(C(=O)Nc2ccccc2)c(-c2ccccc2)c(-c2ccc(F)cc2)n1CC[C@@H](O)C[C@@H](O)CC(=O)O` [amorphous modification of atorvastatin hemi-calcium salt], which “absorption (rate and extent)” value is on record?
**A.** The value was “worse”.

**Q.** For `CC(C)c1c(C(=O)Nc2ccccc2)c(-c2ccccc2)c(-c2ccc(F)cc2)n1CC[C@@H](O)C[C@@H](O)CC(=O)O` [crystalline form of atorvastatin hemi-calcium salt], which “absorption (rate and extent)” value is on record?
**A.** Its value is “significantly better rate and larger extent”.
